Data as given in PubChem BioAssay AID652272 (Drosophila RNAi Screening Center, 2013)
In all, the deposit lists about 21,000 reagents; shown is a random part of those with a known target gene and a result. Over the whole deposit, 503 (2.4%) got an active call. 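Raw plate light values, not normalised; calls rest on replicate z-scores that were not deposited; hits include reporter decreases as well as increases.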 Entries without a mark were called inactive. The numbers tell different reagents against one gene apart. Names joined by + are all predicted targets of the reagent. Not stated in the record: the amount of reagent, the time to read-out.

Test: 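Genes whose knock-down decreases or increases Hedgehog reporter output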 (primary screen)
Cell system: Drosophila clone 8 (Cl8) cells
Reagents: long dsRNA against Drosophila genes
Measured: 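Plate reader light from a firefly reporter under a ptc promoter fragment that responds to Hedgehog, with Renilla light as transfection reference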
Direction: firefly Hh reporter signal: higher = more ptc reporter light; Renilla reference signal: higher = more Renilla control light
Call rule: 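Called a hit if the two-replicate mean z-score lies below -2 or above +3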
Calls: active = hit: reporter lowered or raised; inactive = not a hit

For CG2750, the values are firefly Hh reporter signal, replicate 1 = 75405; firefly Hh reporter signal, replicate 2 = 4.68e5; firefly Hh reporter signal, replicate 3 = 1.95e5; Renilla reference signal, replicate 1 = 1265; Renilla reference signal, replicate 2 = 3253. Mi-2 + Su(Tpl) showed firefly Hh reporter signal, replicate 1 = 3.40e5; Renilla reference signal, replicate 1 = 7290. Silencing of CG43062 resulted in: firefly Hh reporter signal, replicate 1 = 40962; firefly Hh reporter signal, replicate 2 = 1.89e5; Renilla reference signal, replicate 1 = 9174; Renilla reference signal, replicate 2 = 4208. After knock-down of CG2701, the screen gave firefly Hh reporter signal, replicate 1 = 1.14e5; firefly Hh reporter signal, replicate 2 = 81378; Renilla reference signal, replicate 1 = 2555; Renilla reference signal, replicate 2 = 2749. CG31199 gave firefly Hh reporter signal, replicate 1 = 1.28e5; firefly Hh reporter signal, replicate 2 = 64528; Renilla reference signal, replicate 1 = 5250; Renilla reference signal, replicate 2 = 2692. After knock-down of CG4709, the record shows firefly Hh reporter signal, replicate 1 = 69456; firefly Hh reporter signal, replicate 2 = 54292; Renilla reference signal, replicate 1 = 3106; Renilla reference signal, replicate 2 = 2695.

CG16957 showed firefly Hh reporter signal, replicate 1 = 79661; firefly Hh reporter signal, replicate 2 = 50088; Renilla reference signal, replicate 1 = 2163; Renilla reference signal, replicate 2 = 4712. bigmax scored firefly Hh reporter signal, replicate 1 = 1.39e5; firefly Hh reporter signal, replicate 2 = 1.40e5; Renilla reference signal, replicate 1 = 2992; Renilla reference signal, replicate 2 = 3836. 5-HT2B (5-hydroxytryptamine (serotonin) receptor 2B) #1 scored firefly Hh reporter signal, replicate 1 = 46969; firefly Hh reporter signal, replicate 2 = 72790; Renilla reference signal, replicate 1 = 2164; Renilla reference signal, replicate 2 = 2828. For 5-HT2B (5-hydroxytryptamine (serotonin) receptor 2B) #2 the deposit lists firefly Hh reporter signal, replicate 1 = 36963; firefly Hh reporter signal, replicate 2 = 1.09e5; Renilla reference signal, replicate 1 = 1412; Renilla reference signal, replicate 2 = 2818. Prtl99C (Protamine-like 99C) gave firefly Hh reporter signal, replicate 1 = 70214; firefly Hh reporter signal, replicate 2 = 99600; Renilla reference signal, replicate 1 = 1826; Renilla reference signal, replicate 2 = 4802. CG9308 scored firefly Hh reporter signal, replicate 1 = 95261; firefly Hh reporter signal, replicate 2 = 52336; Renilla reference signal, replicate 1 = 2508; Renilla reference signal, replicate 2 = 4844.

After knock-down of BEAF-32 (Boundary element-associated factor of 32kD), the screen gave firefly Hh reporter signal, replicate 1 = 70678; firefly Hh reporter signal, replicate 2 = 59292; Renilla reference signal, replicate 1 = 3613; Renilla reference signal, replicate 2 = 2672. For CG32054, the values are firefly Hh reporter signal, replicate 1 = 34954; firefly Hh reporter signal, replicate 2 = 27872; firefly Hh reporter signal, replicate 3 = 50708; Renilla reference signal, replicate 1 = 3048; Renilla reference signal, replicate 2 = 3600.

2 entries already listed, ordered by “firefly Hh reporter signal, replicate 2”, low to high.
CG31199 — firefly Hh reporter signal, replicate 1: 1.28e5; firefly Hh reporter signal, replicate 2: 64528; Renilla reference signal, replicate 1: 5250; Renilla reference signal, replicate 2: 2692
CG2701 — firefly Hh reporter signal, replicate 1: 1.14e5; firefly Hh reporter signal, replicate 2: 81378; Renilla reference signal, replicate 1: 2555; Renilla reference signal, replicate 2: 2749
